Patent US10278958B2, “IPA as a protective agent” (IXCELA, INC., priority 2012, dated 2019)

Test: Depression study of Sertraline: plasma IPA
Assay type: in vivo, human
Settings: Study 15, 4 weeks, n=57

CN[C@H]1CC[C@@H](c2ccc(Cl)c(Cl)c2)c2ccccc21 [Sertraline]
mean plasma IPA on treatment: 186.3 ng/mL
